“And” between values parts separate entries of the source, which are not always exact repeats. Equal values may be shown once. The whole screen tested about 580,000 compounds, of which about 6,100 (1.1%) were called active. This list was built around the results that the source calls inconclusive (neither active nor inactive); the mix of calls is not that of the screen. Calls follow the shape of the dose curve; as a rule, active = well fitted inhibition curve with a large enough effect; inconclusive = small, poorly fitted or top-dose-only effect, or another doubt; inactive = no such curve, though single readings can be large or run the other way. Where the call is inconclusive, the potency comes from a doubtful curve fit.
Target: Polyunsaturated fatty acid lipoxygenase ALOX12 (Homo sapiens) (UniProt P18054)
Experiment: Primary qHTS assay for inhibitors of human arachidonate 12S-lipoxygenase (ALOX12): Round 2
Conditions: purified 12hLO, xylenol orange hydroperoxide absorbance; series mostly up to 108 µM
Summary of the method: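 Purified human 12hLO (150 nM final) in 25 mM Hepes, 0.01% Triton X-100, pH 7.0 was preincubated 15 min at room temperature with compound. Then 40 uM arachidonic acid was added, 30 min. Hydroperoxide was read by Fe-XO absorbance ratio 573/405 nm.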
Potency is read from the fitted curve at half-maximal effect.

Protein sequences, listed by entry. Tags and fused reporters are not part of them. Lines headed by an entry give the natural chain unless they say otherwise; changes in a name come on top.
UniProt P18054: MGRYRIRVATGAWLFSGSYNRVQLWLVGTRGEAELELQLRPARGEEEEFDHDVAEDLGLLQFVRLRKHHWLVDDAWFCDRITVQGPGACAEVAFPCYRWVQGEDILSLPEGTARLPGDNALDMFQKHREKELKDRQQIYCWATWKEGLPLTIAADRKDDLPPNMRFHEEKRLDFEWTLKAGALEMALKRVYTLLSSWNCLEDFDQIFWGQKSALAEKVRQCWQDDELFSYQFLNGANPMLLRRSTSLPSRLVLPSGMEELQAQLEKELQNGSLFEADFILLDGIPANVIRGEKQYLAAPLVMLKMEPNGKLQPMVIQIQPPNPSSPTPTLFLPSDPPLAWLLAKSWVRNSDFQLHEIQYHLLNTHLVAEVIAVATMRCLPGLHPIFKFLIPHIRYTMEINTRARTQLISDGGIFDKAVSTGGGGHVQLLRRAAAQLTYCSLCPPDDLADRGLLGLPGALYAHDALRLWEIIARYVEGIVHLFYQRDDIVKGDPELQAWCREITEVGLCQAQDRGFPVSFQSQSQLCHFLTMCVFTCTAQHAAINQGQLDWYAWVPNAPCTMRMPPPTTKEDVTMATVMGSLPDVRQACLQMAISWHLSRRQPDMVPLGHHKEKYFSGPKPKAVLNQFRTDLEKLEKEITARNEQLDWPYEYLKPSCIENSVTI

Row | SMILES | Potency
1 | Cc1ccc(C)c(N2CCN(C(=O)c3ccc4nc(N5CCOCC5)sc4c3)CC2)c1 | inactive
2 | O=S1(=O)CCN2C(c3cc(F)ccc3F)=CSC2=N1 | inactive
3 | O=[N+]([O-])c1ccccc1-c1ccc(C(=S)N2CCN(c3ccccc3)CC2)o1 | inconclusive: 50.1 µM [inhibitor, partial curve]
4 | CC(C)(CN=C1NS(=O)(=O)c2ccccc21)CNC(=O)c1ccccc1 | inconclusive: 50.1 µM [inhibitor, partial curve, poor fit]
5 | Cn1c(=O)c2c(ncn2CC(=O)N2CCN(c3ccc([N+](=O)[O-])cc3)CC2)n(C)c1=O | inconclusive: 70.8 µM [inhibitor, partial curve, poor fit]
6 | COc1ccccc1CNC(=O)Nn1cnc2ccccc21 | inactive
7 | Cc1cccc2c(=O)c(-c3ccc4c(c3)OCO4)c(NC(=O)CC(C)C)oc12 | inconclusive: 2.51 µM [inhibitor, full curve, poor fit]
8 | CCCC(=O)Nc1ccc(CNCc2ccc(C)cc2C)cc1 | inconclusive: 39.8 µM [inhibitor, partial curve]
9 | COc1cc(-c2nc(-c3c(C)noc3C)cc3cc(C)oc23)ccn1 | inconclusive: 3.16 µM [inhibitor, full curve, poor fit]
10 | Cc1[nH]c2ccccc2c1C(=O)N1CCN(S(=O)(=O)c2ccc(F)cc2)CC1 | inactive
11 | COC(=O)/C(=C/c1cn(C(C)=O)c2ccccc12)[N+](=O)[O-] | inconclusive: 35.5 µM [inhibitor, partial curve, poor fit]
12 | OCC1(CCOc2ccccc2)CCN(Cc2cn[nH]c2-c2ccc(F)cc2)CC1 | inactive
13 | CC(=O)/C(N=Nc1ccc2c(c1)OCO2)=C(\C)O | inconclusive: 6.31 µM [inhibitor, full curve, poor fit]
14 | Fc1ccc(F)c(CNCc2cccnc2-n2cccn2)c1 | inconclusive: 0.562 µM [inhibitor, full curve, poor fit]
15 | CC(C)NC(=O)NC(=O)CSc1nc(-c2ccco2)nc2ccccc12 | inconclusive: 70.8 µM [inhibitor, partial curve, poor fit]
16 | Cc1cccc2cc(CN(C(=O)c3ccccc3)C(C)C)c(=O)[nH]c12 | inconclusive: 44.7 µM [inhibitor, partial curve, poor fit]
17 | O=C1NC[C@H](CCCCN2C[C@@H](Cc3ccccc3)N(CCC3CCCCC3)C(=O)C2=O)N(CCC2CCCCC2)C1=O | inconclusive: 100 µM [inhibitor, single point]
18 | COC(OC)C(C)NC(=O)NC(=O)c1ccccc1Cl (stereo not drawn) | inconclusive: 35.5 µM [inhibitor, single point]
19 | O=C(NCCc1nc2ccccc2n1CCCOc1ccc(Cl)cc1)C1CCCCC1 | inconclusive: 112 µM [inhibitor, partial curve, poor fit]
20 | Cc1ccccc1CC1CCN(CCCNC(=O)Nc2ccccc2)CC1 | inconclusive: 44.7 µM [inhibitor, partial curve, poor fit]
21 | C=CCn1c(C23CC4CC(CC(C4)C2)C3)n[nH]c1=S | inconclusive: 35.5 µM [inhibitor, partial curve, poor fit]

Row | SMILES | Potency
22 | COc1ccc(C[C@H](NC(=O)[C@@]2(O)C[C@@H](O)[C@H](O)[C@@H](NC(=O)Nc3ccc(C)cc3)C2)C(N)=O)cc1 | inactive
23 | Cc1cc(C)c(NC(=S)NCC(C)N2CCCCC2C)c(Cl)c1 (stereo not drawn) | inconclusive: 79.4 µM [inhibitor, single point]
24 | O=C(O)c1ccc(NC(=S)NC(=O)c2ccc(-c3ccccc3)cc2)cc1 | inconclusive: 17.8 µM [inhibitor, full curve, poor fit]
25 | c1ccc2c(c1)CCN(C1CCCCC1)C2 | inconclusive: 35.5 µM [inhibitor, partial curve, poor fit]
26 | NC(=O)CSc1nnc(-c2ccccn2)n1N | inconclusive: 39.8 µM [inhibitor, partial curve, poor fit]
27 | CC(=O)NC(c1cccc(F)c1)c1nc(-c2csc3ccccc23)cs1 (stereo not drawn) | inconclusive: 63.1 µM [inhibitor, partial curve, poor fit]
28 | O=C(c1cccc(Cl)c1)N1CCN(c2cc(-c3ccccc3)[nH]n2)CC1 | inconclusive: 8.91 µM [inhibitor, full curve]
29 | NCC1CCN(Cc2ccco2)C1 (stereo not drawn) | inconclusive: 0.1 µM [inhibitor, full curve, poor fit]
30 | CCCCN1C(=O)[C@@H]2C[C@@H](O)CN2C2(CN(C3CCOCC3)C2)C1=O | inconclusive: 126 µM [inhibitor, partial curve, poor fit]
31 | S=c1[nH]nc(-c2ccc(Cl)cc2)n1/N=C/c1ccco1 | inconclusive: 112 µM [inhibitor, single point]
32 | COc1cc(C(=O)N2CCC(N3CCCCCC3)CC2)cc(OC)c1OC | inconclusive: 398 nM [inhibitor, full curve] and inconclusive: 501 nM [inhibitor, full curve, poor fit]
33 | CN(C)CCCn1c(SCc2ccc(Cl)cc2)nnc1-c1ccncc1 | inconclusive: 0.355 µM [inhibitor, full curve, poor fit]
34 | Cc1cccc(S(=O)(=O)c2c(N)n(/N=C/c3ccccc3)c3nc4ccccc4nc23)c1 | inactive
35 | CC(=O)c1cccc(NC(=O)c2ccc(Br)o2)c1 | inconclusive: 44.7 µM [inhibitor, partial curve, poor fit]
36 | Cc1cccc(C2=NN(c3ccccc3)[C@@H](C(=O)N3CCOC3=O)[C@@H]2c2ccc([N+](=O)[O-])cc2)c1 | inactive
37 | C=C(C)Cn1c(Br)nc2c1c(=O)[nH]c(=O)n2C | inactive
38 | CC(C)C[C@H]1COc2c(Cl)cccc2S(=O)(=O)N1Cc1cccc(Cl)c1 | inactive
39 | CCOC(=O)c1nn(-c2sc(C(=O)OC)c(C)c2C(=O)OC)cc1O | inconclusive: 0.178 µM [inhibitor, full curve, poor fit]
40 | Cc1ccccc1[C@@H]1CN(C(=O)CCC(=O)NC2CCCC2)C[C@H]1C(=O)O | inactive
41 | CCN1C(=O)/C(=C/c2ccc(C)s2)NC1=S | inconclusive: 1.41 µM [inhibitor, full curve, poor fit]
42 | CCN(c1ccc(NC(=O)CCNC(=O)c2ccco2)cc1)C(C)C | inactive

Row | SMILES | Potency
43 | CC(=O)c1c(C)nc2ccc([N+](=O)[O-])cc2c1-c1ccccc1 | inconclusive: 56.2 µM [inhibitor, single point]
44 | CC(=O)N1CCc2cc3nc(C)cc(C)c3cc21 | inconclusive: 6.31 µM [inhibitor, partial curve, poor fit]
45 | COc1ccc(S(=O)(=O)N(C)C[C@H]2Oc3ccc(NC(=O)CCC(F)(F)F)cc3C(=O)N([C@H](C)CO)C[C@@H]2C)cc1 | inconclusive: 50.1 µM [inhibitor, partial curve, poor fit]
46 | COc1ccc(CCC(=O)N2CCC3(CC2)CCC(O)(CN(C)C)CC3)cc1 | inactive
47 | CCCSCC(=O)Nc1ncc2c(n1)-c1ccccc1CC2 | inconclusive: 39.8 µM [inhibitor, partial curve, poor fit]
48 | O=C(Nc1ccc(C(F)(F)F)cc1)N1CCC2(CC1)C(=O)NCN2Cc1ccc(Cl)cc1 | inconclusive: 50.1 µM [inhibitor, partial curve]
49 | S=C(NCC(c1ccco1)N1CCCC1)Nc1ccccc1 (stereo not drawn) | inconclusive: 126 µM [inhibitor, partial curve, poor fit]
50 | COc1ccccc1NC(=S)N(Cc1ccc(C(=O)O)cc1)Cc1ccc(OC)c(OC)c1 | inconclusive: 1.26 µM [inhibitor, full curve, poor fit]
51 | CCNC(=S)N(CCc1c(C)[nH]c2ccccc12)Cc1cc(OC)c(OC)c(OC)c1 | inconclusive: 39.8 µM [inhibitor, single point]
52 | COc1ccc(-c2cc(C(=O)N3CCN(S(=O)(=O)c4ccccc4)CC3)[nH]n2)cc1 | inconclusive: 4.47 µM [inhibitor, partial curve, poor fit]
53 | O=C(O)C=C(Br)Br | inconclusive: 141 µM [inhibitor, single point]
54 | Oc1ccccc1CN1C[C@H](O)C[C@H]1c1nc(-c2ccc(F)cc2)no1 | inconclusive: 20 µM [inhibitor, full curve]
55 | Cc1cccc(-n2ncc3c(=O)[nH]c(SCC(=O)N4CC(=O)Nc5ccccc54)nc32)c1 | inactive
56 | COc1ncccc1CNC[C@H]1Cn2cc(-c3ccc4c(c3)OCCCO4)nc2CO1 | inactive
57 | COc1ccc2c(c1OC)C(=O)OC2CC(=O)c1ccc(O)c(O)c1 (stereo not drawn) | inconclusive: 0.562 µM [inhibitor, full curve, poor fit]
58 | Clc1ccc(Nc2nc(N3CCOCC3)nc(N3CCOCC3)n2)cc1Cl | inactive
59 | CCCc1nc2c(c(=O)c3ccccc3n2C)c(=O)n1-c1ccc(F)cc1 | inconclusive: 126 µM [inhibitor, partial curve, poor fit]
60 | CCOC(=O)c1ccc(C#Cc2ccc3c(c2)C(C)(C)CCS3)nc1 | inconclusive: 2.73 µM [inhibitor, full curve, poor fit]
61 | COc1ccc(-n2cc(C(=O)c3ccccc3O)cn2)cc1 | inconclusive: 44.7 µM [inhibitor, partial curve, poor fit]
62 | CCCCCn1nc(C(=O)OCC(=O)Nc2cc(C)on2)c2ccccc2c1=O | inconclusive: 79.4 µM [inhibitor, single point]
63 | Cc1ccc(N2CCCS2(=O)=O)cc1NS(=O)(=O)c1ccc(F)cc1C | inconclusive: 112 µM [inhibitor, partial curve, poor fit]

Individual results from the entries so far:
Potency with O=C(Nc1ccc(C(F)(F)F)cc1)N1CCC2(CC1)C(=O)NCN2Cc1ccc(Cl)cc1 is entered as inconclusive: 50.1 µM [inhibitor, partial curve]
Potency with Cc1cccc2cc(CN(C(=O)c3ccccc3)C(C)C)c(=O)[nH]c12 is entered as inconclusive: 44.7 µM [inhibitor, partial curve, poor fit]
Potency with Cc1ccccc1[C@@H]1CN(C(=O)CCC(=O)NC2CCCC2)C[C@H]1C(=O)O is entered as inactive
